Assay results: paper PMC4349446

Protein sequences, listed by entry. Tags and fused reporters are not part of them. Lines headed by an entry give the natural chain unless they say otherwise; changes in a name come on top.
UniProt P16671: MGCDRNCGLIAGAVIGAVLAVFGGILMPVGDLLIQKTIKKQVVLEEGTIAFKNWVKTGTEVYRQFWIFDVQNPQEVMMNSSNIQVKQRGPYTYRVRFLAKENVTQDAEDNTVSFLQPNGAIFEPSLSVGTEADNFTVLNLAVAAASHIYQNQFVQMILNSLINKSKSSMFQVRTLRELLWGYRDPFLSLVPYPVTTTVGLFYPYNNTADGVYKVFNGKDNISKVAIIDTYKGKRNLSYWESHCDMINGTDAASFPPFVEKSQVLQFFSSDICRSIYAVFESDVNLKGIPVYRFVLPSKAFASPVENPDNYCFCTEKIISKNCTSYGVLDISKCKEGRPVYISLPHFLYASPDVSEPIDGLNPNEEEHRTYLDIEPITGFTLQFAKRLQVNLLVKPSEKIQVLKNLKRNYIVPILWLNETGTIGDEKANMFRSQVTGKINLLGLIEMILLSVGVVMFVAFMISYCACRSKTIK

Target: Recombinant CD36 (hexa-histidine tag at C-terminal) (UniProt P16671)
Assay: SPR; CD36 immobilised on a GLM sensor chip (ProteON XPR36); peptide 10 μM in PBS-Tween20, 50 μl/min, association 0–120 sec; both purified

binding: binds
Binder: DCKWKEQMTTNIMWAASPFASYAKLQLKYFKGQLGLRGLGSEDK [scrambled 44 mer peptide]

No constants are given. Whether binding was seen depends on the method and setting. Binding calls can cover weak binding; strength is not graded here.
